The whole screen tested about 53,000 sequences, of which about 3,700 (7%) were called active.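 Rule for the calls: active = gene knockdowns whose robust z-score for IL-1 alpha signal is at least 2 or at most -2, so actives lie on both sides; inactive = the rest.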 This is one part of the list.
test: Components of the Cytosolic LPS Sensing Pathway: Gene Identification via Genome-wide siRNA Screen; conditions: RAW264.7 macrophages, IL-1a HTRF, actives lie on both sides, screened at 100 nM (by protocol), cells primed 5 h with Pam3CSK4 first;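 note: robust z of the log signal after scaling to non-targeting control siRNA wells of the plate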
How it was run: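 IL-1a HTRF of supernatants after 24 hour LipidA transfection of Pam3CSK4-primed (5 hours) RAW264.7 cells, 48h post-siRNA transfection (100 nM). Scores: percent of plate negative-control median, then log-based robust z-score.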

Row | Sequence | z-score
1 | GGAGAUCGACGCGUGUAUCTT against Reep4 | inactive: 0.731
2 | GGACCUUCGUGAGAAUUUCTT against Mst1 | inactive: 0.521
3 | GCUACGUUCGAUAUGGGUGTT against H2-T3 | inactive: -0.17
4 | GCUACCACAGGAUAUCCUUTT against Mcf2 | inactive: 0.6
5 | GCACGGUGUGUACAACCCUTT against Mdh2 | inactive: 0.784
6 | GGUCGAUCACGUCAUCGAATT against Unc5a | inactive: -1.29
7 | CCUACUUGAUAUUUUUGGUTT against Ccz1 | inactive: 0.122
8 | GGCUGAUUUAUACUGGAAATT against Tmem70 | inactive: 1.67
9 | GGUGCAUCACUUCAUGGAATT against Timm8b | inactive: 0.17
10 | CCAGCAUUAUCCAUAUCAATT against Nat2 | inactive: 0.786
11 | CCAGAUUGUUGUGGAAGUATT against Zfy1 | inactive: -1.2
12 | GGAGAAAAUGAGGUUAAUGTT against Tspan5 | inactive: 0.794
13 | GGAGAUUUUCCAGUACACUTT against Slx4 | inactive: -0.416
14 | CUUGGUGACAGACAAUGUCTT against H2-D1 | inactive: 0.181
15 | GGAGAAUGUGUUGGUCAUUTT against Pfkfb4 | inactive: 0.0548
16 | GGUACCAUCAGAACCUGUCTT against Pop5 | inactive: 0.922
17 | CGUGAUGCUGUAAAUAGUUTT against AI606181 | inactive: -0.485
18 | CCCAGUGACUAAUGGAUAUTT against Dsg1b | inactive: 0.354
19 | GGUCUUUGCUGUGCACUUUTT against Olfr1214 | inactive: -1.16
20 | CGUCUAGGAAGGAAACAGGTT against Stk32a | inactive: -1.54
21 | GGCAUUUCAACAUCAAUAUTT against Vmn2r26 | inactive: -0.34
22 | CCAUUCACAGGUAGAGGAATT against Pdxdc1 | inactive: 0.545

Row | Sequence | z-score
23 | GGUACACCACGAAUGCACUTT against Epha1 | inactive: 0.715
24 | GGUGGAUUUUUUGUUGAUCTT against Naa20 | inactive: -0.647
25 | GGAGAAAUCGAUUCCCAUUTT against Olfr1132 | inactive: 0.444
26 | GGACACCGGGAUGUGCAAATT against Pglyrp1 | inactive: 1.6
27 | CAUUGGUGACAAUAAGUAUTT against Ssx9 | inactive: -0.172
28 | CCUUGUAAUGUGAUUCUGGTT against Ctsr | inactive: 0.604
29 | GCGAUUGUCAUUCUCUUUUTT against Jak3 | inactive: 0.711
30 | GCCCGAGUUAGAGCAGUUATT against Inca1 | inactive: 0.78
31 | GGAUGUGACUAAAGUCAACTT against Plet1 | inactive: 0.699
32 | GGUUCAAGUGCAUUGCUUCTT against Rab34 | inactive: 0.979
33 | GGUUUUUUGCUCUAUUUGATT against Ppip5k1 | inactive: 0.0552
34 | GGGUUUUUAAGUUCACUGATT against St7l | inactive: -0.998
35 | GGAAGUGGUGGACAAAGUGTT against S100b | inactive: -0.0507
36 | GGUGGAGACUAAUCCAUUATT against Esco1 | inactive: 1.16
37 | GCAGGACAACCAGCUGGUATT against Tmem107 | active: 3.43
38 | GGGCAUGGCUGUCUUACUCTT against Cend1 | inactive: -1.66
39 | GCCAAAUUGCACCAUGUAUTT against Spinkl | inactive: -1.65
40 | GACAGAAUGCCAUUUCCUATT against Olfr902 | inactive: -0.325
41 | GGGAAGAAGUUUAAAAGAATT against Rdh11 | inactive: -0.466
42 | GGAGCAGAAUCCUUAUCGATT against Trpv5 | inactive: -0.301
43 | GGAUCAUUAGAUAAGUCAATT against Xpo4 | inactive: -0.853
44 | CCGUAAUUGAUUCUUUACUTT against Kif3a | inactive: 0.0217

Row | Sequence | z-score
45 | CCCUUCGAUAACCAGAUCCTT against Utf1 | inactive: 0.786
46 | GGCUUCUCAGCUAGAAAACTT against Atxn7l2 | inactive: -0.619
47 | GCCGUUUUACAAAAGCUUUTT against Foxn3 | inactive: -0.974
48 | GGAGGGUGUCAUUUUGCCATT against Slc8a3 | inactive: -1.26
49 | GCCUGAAUUCCACUACUCGTT against Def8 | inactive: 0.551
50 | GGACUAAAAAAAGUAGUGUTT against Abca5 | inactive: -0.838
51 | GGAGAUGCAAAGUCUGUCUTT against Krt33a | inactive: 0.726
52 | GGUCGAUUGAAGUGGAAAATT against Sh3kbp1 | inactive: -0.221
53 | GGAACUCACCUACCAAGAATT against Ankrd40 | inactive: -1.24
54 | GGAAUUGAUCACUAACCCUTT against Adgre5 | inactive: 1.07
55 | CCCAUGUCGUGACAUCACATT against Slc26a7 | active: -2.93
56 | GGAGCAGUUUGAACGAAUCTT against Aldh1b1 | inactive: -0.334
57 | GGCCAGCAAAACAAAUGACTT against Slc34a2 | inactive: -1.01
58 | GGUCAUUUUGGGAUAUCAGTT against Lman1 | inactive: -1.19
59 | GGAAAUCUGAUGUGGAAAGTT against Med14 | inactive: -0.97
60 | GGAUGACCAACAUUUUACATT against Ptprf | inactive: -0.261
61 | GGGAAUUUGCUCCUGAAGGTT against Pcdhb8 | inactive: -0.781
62 | GGCACAGGUUAGAUGAGAGTT against Sarm1 | inactive: 0.33
63 | CCACCAUGUAUCUUUGAGUTT against 1700123O20Rik | inactive: -0.257
64 | CGGAACAAAUGUCUUGGGCTT against Kcnrg | inactive: 0.347
65 | GGUUUAACUUUAAUGAUGGTT against Cacna1e | inactive: -1.39
66 | GGAUGUAACAUUUCUUCAATT against Rmi1 | inactive: 0.567

Quoted from the listing:
Value for CCCAUGUCGUGACAUCACATT against Slc26a7 under z-score: active: -2.93
Value for GGGAAUUUGCUCCUGAAGGTT against Pcdhb8 under z-score: inactive: -0.781
Value for CCCUUCGAUAACCAGAUCCTT against Utf1 under z-score: inactive: 0.786

(next part)

Row | Sequence | z-score
67 | GGUGUUUGCCUCAGAAAUCTT against Cdk17 | inactive: -0.676
68 | GCAGGUGGUUAUCAACUGUTT against Vasp | inactive: -0.588
69 | GGUCCUGUUGGAGAUGAUATT against Ube2d2a | inactive: -0.412
70 | GGAAUUUUAACACCUUUAGTT against Twist1 | inactive: 1.6
71 | GGAAGAAGAGUUCAAAGAATT against Srrm2 | inactive: -0.606
72 | GGUGCUACUGGAAGAAGGGTT against Ubl4a | inactive: 0.984
73 | GGAAAAAUUUUGGAUUCAGTT against Hmgxb4 | inactive: 0.309
74 | GGAAAUUGUGGACAUGAUCTT against Sult1c1 | active: -3.27
75 | GGUUUUUGGAUUCAAAGCATT against Pten | inactive: -0.703
76 | GGCUUGCUGAUUAAAGAUGTT against Strbp | inactive: -0.544
77 | GGGAGGACAGGUUCCUUAATT against Ndufa9 | inactive: 1.86
78 | GGCUAUGCAUACAUAUAAATT against Slc24a2 | inactive: -0.338
79 | GGAAGAAGAAAGAUUCAAATT against Bcan | inactive: -0.862
80 | GCAUGGACAGUUAUGUAUATT against Slc5a6 | inactive: -0.207
81 | GGAGAUUGAUGAGCAUGCCTT against Rab40b | active: -2.15
82 | GGAUACAAGAUACCAUUGATT against Slc27a2 | inactive: -0.412
83 | GGAAAAAGCAAUCAGACACTT against Pdcd7 | inactive: -0.862
84 | GGUGUGUAACAAGGCCUUCTT against Ovol2 | inactive: -1.21
85 | GCUUCCAGUCAGUGGUUACTT against Rara | inactive: 1.07
86 | GGCCAAGAAUGAGCCAGUATT against Lrp1 | inactive: 0.452
87 | GGAUAAAAAUCACCCACUGTT against Vwa8 | inactive: 0.21
88 | GCAGGUUAUGGUCAUAUUUTT against Zfp646 | inactive: 0.583

Row | Sequence | z-score
89 | GGGAAGAAACAAAGCUUUUTT against Olfr267 | inactive: 0.538
90 | GGAAUUUGAUGAGGAUUUGTT against Septin3 | inactive: 1.2
91 | CCCUACUGUUAUUCAAACCTT against Rhoj | inactive: 0.45
92 | GCACUGGAAGGCCAAUUAGTT against Fancb | inactive: 0.35
93 | GGUGCAUUCUUAGUAUACUTT against Pgap1 | inactive: -1.67
94 | GGGUAUAAGAAAACUGGCATT against Rad18 | inactive: 0.721
95 | CCUACUGUACCAGUAAAGUTT against Dzip1 | inactive: 0.00188
96 | GGAGAGUUGGGACUAUGCATT against Cd37 | inactive: -0.613
97 | GGAAGAUCAGCCAUACUAGTT against Klrb1f | active: 2.12
98 | CUCAACAUUCUCUAAACAUTT against Zfp708 | inactive: -0.0612
99 | GGGACAAGUUGGAUUCUUGTT against Polr1e | inactive: -0.96
100 | GGAGCACUAUGAUGAGUUCTT against U2af1 | inactive: -0.452
101 | CCUUGAUCUACAUAGAACCTT against Olfr177 | inactive: 0.338
102 | CCGGUUUAUGUCCUCUAUATT against Slc8a1 | inactive: 0.25
103 | CCACACAGUUAAUUGAAAUTT against Nsun2 | inactive: -0.541
104 | GUGAGUUCGAAAAGGGAAUTT against Arap2 | inactive: 0.33
105 | GGAUCUUGAUCUUAGGACATT against Vwa7 | inactive: 0.724
106 | AUGGAUGCAAGAGCUUGAUTT against Maml3 | inactive: 0.107
107 | GGGCAAAAUACAAAAGGAGTT against Mlph | inactive: -0.9

Pulled one by one from the entries so far:
Row | Sequence | z-score
11 | CCAGAUUGUUGUGGAAGUATT against Zfy1 | inactive: -1.2
8 | GGCUGAUUUAUACUGGAAATT against Tmem70 | inactive: 1.67
38 | GGGCAUGGCUGUCUUACUCTT against Cend1 | inactive: -1.66
81 | GGAGAUUGAUGAGCAUGCCTT against Rab40b | active: -2.15
